Test results from patent US10913771B2, “Peptide for preventing or treating inflammatory diseases and use thereof” (KINE SCIENCES Co., Ltd., priority 2016, dated 2021).
Part of at least one peptide drawing is inferred or uncertain, most often the ends. Ends that are not written are not given here.

Assays:
[1] = system: collagen-induced arthritis (CIA) mouse model; assay: Arthritis progression index in collagen-induced arthritis mouse model; assay type: in vivo, DBA/1J mouse
Protocol: In Example 2, using a collagen-induced arthritis mouse model in the following document, a therapeutic effect of a PSP dimer or trimer for a representative inflammatory disease, rheumatoid arthritis was confirmed (Nat Protoc. 2007; 2(5):1269-75.).
A collagen-induced arthritis (CIA) mouse model was prepared as follows, as an autoimmune disease-based arthritis model with characteristics similar to human rheumatoid arthritis.
First, a bovine type II collagen (Chondrex Corporation, USA) and a Freund's complete adjuvant (Chondrex Corporation, USA) were mixed at a ratio of 1:1 and emulsified, and then 50 μl of the emulsified collagen solution was injected intradermally into the tail of a 6-week-old DBA/1J mouse to induce primary immunization. At two weeks after the primary immunization, the bovine type II collagen and the Freund's complete adjuvant were mixed at a ratio of 1:1 and emulsified, and then 50 μl of the emulsified collagen solution was injected intradermally into the tail of the mouse again to induce secondary immunization (boosting). After the secondary immunization, the peptide of the present invention (the PSP dimer (1 μmole) or the PSP trimer (1 μmole)) was administered intraperitoneally three times a week from the next day, and as a comparative experimental group, a PSP monomer-treated group and as a control (Vehicle control), a PBS-treated group were used, respectively. The preparation process of the collagen-induced arthritis mouse model and the administration time of the peptide were schematically illustrated in FIG. 1.
In order to investigate the development of arthritis progression according to the peptide treatment of the present invention, the deepening degree of arthritis with time was measured by evaluating an arthritis progression index. Two observers who were unaware of the specific experimental conditions evaluated progression of arthritis three times a week. In this case, the arthritis progression index was evaluated by 0 to 4 scores per leg according to an arthritis progression evaluation standard by Rossoliniec and the like in Table 2 below to be represented by a total of 0 to 16 scores (a sum of four legs), and thereafter, two observers calculated an average value of the evaluated results to digitize the severity of arthritis.
Methotrexate (MTX), one of drugs which are used as arthritis therapeutic agents in a current clinical practice, had excellent anti-inflammatory and arthritis therapeutic effects as an immunodepressant, but may have side effects such as toxicity to normal cells, oral ulcer, alopecia, interstitial pneumonia, bone marrow suppression, and the like. As a result, the methotrexate is known as a drug that needs to pay close attention after medication with sufficient medication counseling. In Example 2, the arthritis therapeutic effect with the peptide of the present invention and methotrexate (1 mg/kg) was evaluated and compared with the arthritic progression index by using the same method as Example 2-2.

[2] = system: collagen-induced arthritis (CIA) mouse model; assay: Histological analysis (H&E) of hind leg joint tissue of CIA mouse; assay type: in vivo; details: FIG. 6
interleukin-18 (IL-18) = assay: IL-18 expression in joint tissue by immunohistochemistry (IHC); assay type: in vivo; details: CIA mouse joint tissue; FIG. 7

Substance: PSPPSP [PSP dimer, PSPPSP]
- swelling and redness symptoms around the ankle joint (visual check) ([1]; CIA mouse, compared with the control, FIG. 5): remarkably mitigated
- arthritis progression index compared with methotrexate ([1]; CIA mouse, methotrexate 1 mg/kg, in words): approximate arthritis progression index to the group treated with methotrexate
- arthritis progression index ([1]; Table 4, day 16, 1 μmole intraperitoneally three times a week, 0 to 16 scores): 0.0
- arthritis progression index ([1]; Table 4, day 18, 1 μmole intraperitoneally three times a week): 0.0
- arthritis progression index ([1]; Table 4, day 20, 1 μmole intraperitoneally three times a week): 0.5
- arthritis progression index ([1]; Table 4, day 22, 1 μmole intraperitoneally three times a week): 0.5
- arthritis progression index ([1]; Table 4, day 25, 1 μmole intraperitoneally three times a week): 1.3
- arthritis progression index ([1]; Table 4, day 27, 1 μmole intraperitoneally three times a week): 1.0
- arthritis progression index ([1]; Table 4, day 29, 1 μmole intraperitoneally three times a week): 2.5
- arthritis progression index ([1]; Table 4, day 32, 1 μmole intraperitoneally three times a week): 3.3
- arthritis progression index ([1]; Table 4, day 34, 1 μmole intraperitoneally three times a week): 6.0
- arthritis progression index ([1]; Table 4, day 36, 1 μmole intraperitoneally three times a week): 6.5
- arthritis progression index ([1]; Table 6, day 14, comparison of PSP dimer with methotrexate (1 mg/kg), 0 to 16 scores): 0.0
- arthritis progression index ([1]; Table 6, day 17, comparison with methotrexate (1 mg/kg)): 0.0
- arthritis progression index ([1]; Table 6, day 20, comparison with methotrexate (1 mg/kg)): 0.0
- arthritis progression index ([1]; Table 6, day 22, comparison with methotrexate (1 mg/kg)): 0.0
- arthritis progression index ([1]; Table 6, day 25, comparison with methotrexate (1 mg/kg)): 0.4
- arthritis progression index ([1]; Table 6, day 27, comparison with methotrexate (1 mg/kg)): 1.2
- arthritis progression index ([1]; Table 6, day 29, comparison with methotrexate (1 mg/kg)): 2.0
- arthritis progression index ([1]; Table 6, day 31, comparison with methotrexate (1 mg/kg)): 4.2
- arthritis progression index ([1]; Table 6, day 35, comparison with methotrexate (1 mg/kg)): 4.2
- immune cell infiltration, pannus formation, cartilage destruction and bone erosion of the joint region (H&E) [2]: greatly reduced
- expression of IL-18 in the joint region (IHC) (interleukin-18 (IL-18)): largely decreased to the normal mouse level
